According to article PMC4961794:
Results are given in words; binding and its absence hold for the method and conditions named. Binding seen in cells or lysates may run through a third protein. Some binding calls cover weakened binding; strength is not graded here.

Protein sequences, listed by entry. Tags and fused reporters are not part of them.
UniProt Q9NRC8: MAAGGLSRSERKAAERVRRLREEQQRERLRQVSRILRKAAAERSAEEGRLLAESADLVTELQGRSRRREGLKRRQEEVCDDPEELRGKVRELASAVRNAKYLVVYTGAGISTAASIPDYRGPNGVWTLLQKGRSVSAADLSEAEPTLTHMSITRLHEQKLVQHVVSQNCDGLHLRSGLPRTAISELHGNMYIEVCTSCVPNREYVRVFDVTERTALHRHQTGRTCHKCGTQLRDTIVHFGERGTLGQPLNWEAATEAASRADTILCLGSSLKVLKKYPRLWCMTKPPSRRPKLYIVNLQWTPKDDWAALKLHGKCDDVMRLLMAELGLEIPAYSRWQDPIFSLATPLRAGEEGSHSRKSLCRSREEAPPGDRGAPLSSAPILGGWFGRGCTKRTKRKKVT
UniProt P09874: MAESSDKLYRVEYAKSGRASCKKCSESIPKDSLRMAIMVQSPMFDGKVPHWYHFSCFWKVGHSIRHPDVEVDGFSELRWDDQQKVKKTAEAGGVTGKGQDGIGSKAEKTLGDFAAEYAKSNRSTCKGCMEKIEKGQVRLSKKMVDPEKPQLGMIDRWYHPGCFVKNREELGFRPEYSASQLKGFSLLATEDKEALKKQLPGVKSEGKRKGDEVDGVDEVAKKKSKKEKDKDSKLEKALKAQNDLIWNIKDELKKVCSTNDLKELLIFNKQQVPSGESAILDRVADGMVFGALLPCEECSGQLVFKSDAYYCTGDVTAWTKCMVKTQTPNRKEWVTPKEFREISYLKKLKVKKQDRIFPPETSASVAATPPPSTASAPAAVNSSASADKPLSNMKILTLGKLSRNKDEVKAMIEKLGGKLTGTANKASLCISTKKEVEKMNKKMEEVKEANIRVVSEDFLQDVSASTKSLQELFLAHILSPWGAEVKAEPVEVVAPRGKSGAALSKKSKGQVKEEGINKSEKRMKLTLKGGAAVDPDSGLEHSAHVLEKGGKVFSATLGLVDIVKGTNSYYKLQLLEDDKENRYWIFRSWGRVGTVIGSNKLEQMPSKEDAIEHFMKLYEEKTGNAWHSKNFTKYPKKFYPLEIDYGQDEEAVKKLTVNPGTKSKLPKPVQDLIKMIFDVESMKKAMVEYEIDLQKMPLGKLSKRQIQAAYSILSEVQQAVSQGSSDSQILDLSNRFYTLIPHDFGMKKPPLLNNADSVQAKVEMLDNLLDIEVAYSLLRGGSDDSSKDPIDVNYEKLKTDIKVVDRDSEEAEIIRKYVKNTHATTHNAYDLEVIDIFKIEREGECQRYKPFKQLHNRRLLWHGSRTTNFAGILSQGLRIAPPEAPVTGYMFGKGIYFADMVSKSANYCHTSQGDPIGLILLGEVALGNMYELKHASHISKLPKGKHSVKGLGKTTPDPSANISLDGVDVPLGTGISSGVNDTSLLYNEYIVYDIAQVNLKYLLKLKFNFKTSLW

Target: SIRT7 (endogenous) (human (endogenous in U2OS)) (UniProt Q9NRC8)
Assay: co-IP; U2OS whole-cell lysate immunoprecipitated with antibodies against SIRT7, then immunoblotting; cells exposed to 6 Gy of IR or not

binding: binds
Substance: PARP1 (endogenous, U2OS) (from UniProt P09874 1-1014)
